According to PubChem BioAssay AID248 (DTP/NCI, 2004):
The list does not hold the whole screen: it is rich in T/C values a quarter to a half above the control, in often repeated tests (any T/C) and in doses without a T/C. Further doses and runs are listed elsewhere. T/C: endpoint of the treated group in % of that of the vehicle group. Some doses have a count of surviving animals in place of a T/C: the source files T/C as zero there, which appears to mark a toxic dose or a test without result, not a measured value. Some doses without a T/C left all or most animals alive at the check, yet need not have been tolerated: the source hardly ever lists a survival T/C far under the control, and the zero likely stands for such cases as well. Counts of survivors are from the toxicity check (mostly the fifth day) where no day follows; animals may have died later. Schedule codes are those of the source, read here as Q, the interval in days (D) or hours (H), X, the number of doses. Some schedules carry Z or #; the key to these is not given. Some entries hold several experiments; the values are given in rising order. Some molecules as drawn cover several salts, stereoisomers or complexes of the source; a dose is that of the sample tested. Where survival is the endpoint, this PubChem deposit counts one and a half times the control or more as active, and values a quarter to a half above the control carry no call in these data; other NCI protocols may use other cut-offs. Some T/C values are followed by the survivors on the day toxicity was checked, most often the fifth; without a count, all were alive then.

System: L1210 leukemia ip in BDF1 mice, survival T/C
Test: NCI In Vivo Anticancer Drug Screen. Data for tumor model L1210 Leukemia (intraperitoneal) in B6D2F1 (BDF1) mice
Conditions: T/C endpoint: mean survival time, higher T/C = longer survival
[1] = dose: 50.0 mg/kg/injection, schedule: Q01DX009 (ip), vehicle: saline
[2] = dose: 400.0 mg/kg/injection, schedule: Q04DX003 (ip), vehicle: saline with Tween-80
[3] = dose: 400.0 mg/kg/injection, schedule: Q04DX002 (ip), vehicle: saline with Tween-80
[4] = dose: 100.0 mg/kg/injection, schedule: Q01DX001 (ip), vehicle: saline
[5] = dose: 100.0 mg/kg/injection, schedule: Q04DX002 (ip), vehicle: saline
[6] = dose: 200.0 mg/kg/injection, schedule: Q01DX001 (ip), vehicle: saline
[7] = dose: 200.0 mg/kg/injection, schedule: Q04DX002 (ip), vehicle: saline
[8] = dose: 400.0 mg/kg/injection, schedule: Q01DX001 (ip), vehicle: saline
[9] = dose: 100.0 mg/kg/injection, schedule: Q01DX001 (ip), vehicle: Klucel (hydroxypropylcellulose) (HPC)
[10] = dose: 300.0 mg/kg/injection, schedule: Q01DX001 (ip), vehicle: other

COc1cccc2c1C(=O)c1c(O)c3c(c(O)c1C2=O)C[C@@](O)(/C(C)=N\NC(=O)CO)C[C@@H]3OC1CC(N)C(O)C(C)O1 (stereo partly drawn)
T/C (dose: 2.0 mg/kg/injection, schedule: Q04DX003 (ip), vehicle: saline): 127 % of control | T/C (dose: 2.66 mg/kg/injection, schedule: Q04DX003 (ip), vehicle: saline): 135 % of control | T/C (dose: 4.0 mg/kg/injection, schedule: Q04DX003 (ip), vehicle: saline): 140 % of control | T/C (dose: 6.0 mg/kg/injection, schedule: Q04DX003 (ip), vehicle: saline): 148 % of control | T/C (dose: 7.0 mg/kg/injection, schedule: Q01DX009 (ip), vehicle: saline): 142 % of control | T/C (dose: 8.0 mg/kg/injection, schedule: Q04DX003 (ip), vehicle: saline): 128 % of control [5 of 6 alive] | T/C (dose: 9.0 mg/kg/injection, schedule: Q04DX003 (ip), vehicle: saline): 147 % of control | T/C (dose: 12.5 mg/kg/injection, schedule: Q04DX003 (ip), vehicle: saline): 131 % of control | survivor count (dose: 21.0 mg/kg/injection, schedule: Q01DX009 (ip), vehicle: saline): 5 of 6 | T/C (dose: 21.0 mg/kg/injection, schedule: Q04DX003 (ip), vehicle: saline): 139 % of control | T/C (dose: 25.0 mg/kg/injection, schedule: Q01DX009 (ip), vehicle: saline): 127 % of control | survivor count (dose: 32.0 mg/kg/injection, schedule: Q01DX009 (ip), vehicle: saline): 1 of 6 | T/C (dose: 32.0 mg/kg/injection, schedule: Q04DX003 (ip), vehicle: saline): 147 % of control | survivor count (dose: 48.0 mg/kg/injection, schedule: Q04DX003 (ip), vehicle: saline): 6 of 6 | T/C [1]: 145 % of control

O=C1OC(=O)c2cscc21
survivor count [2]: 0 of 3

CC1(C)C2(C(N)=O)C(=O)NC(=O)C12C(=O)O (stereo not drawn)
survivor count (dose: 100.0 mg/kg/injection, schedule: Q04DX002 (ip), vehicle: saline with Tween-80): 3 of 3 | survivor count [3]: 3 of 3

CCCOP(=O)(OCCC)C(OC(=O)C(C)C)=C(C)C
survivor count [2]: 1 of 6

CC(C)c1nccn1Cc1ccccc1
T/C (dose: 50.0 mg/kg/injection, schedule: Q04DX002 (ip), vehicle: saline): 97, 100, 104, 109 % of control | survivor count [4]: 3 of 6 | T/C [5]: 95, 97, 109, 145 % of control | survivor count [5]: 1 of 3 and 3 of 6 | survivor count (dose: 100.0 mg/kg/injection, schedule: Q04DX003 (ip), vehicle: saline): 0 of 6 and 2 of 6 | survivor count (dose: 125.0 mg/kg/injection, schedule: Q04DX002 (ip), vehicle: saline): 1 of 6 | survivor count [6]: 0 of 6 | T/C [7]: 97 and 101 % of control | survivor count [7]: 0 of 3 | survivor count (dose: 200.0 mg/kg/injection, schedule: Q04DX003 (ip), vehicle: saline): 0 of 6 | survivor count [8]: 0 of 6 | survivor count (dose: 400.0 mg/kg/injection, schedule: Q04DX002 (ip), vehicle: saline): 0 of 3 and 1 of 6 | survivor count (dose: 400.0 mg/kg/injection, schedule: Q04DX003 (ip), vehicle: saline): 0 of 6

COC(=O)CC1(O)C=CC(=O)C=C1
survivor count [1]: 2 of 4 | survivor count (dose: 100.0 mg/kg/injection, schedule: Q01DX009 (ip), vehicle: saline): 0 of 4

COc1nc(N)nc2c1nnn2C1OC(CO)C(O)C1O (stereo not drawn)
T/C [9]: 125 % of control | survivor count [9]: 3 of 5 | survivor count (dose: 200.0 mg/kg/injection, schedule: Q01DX001 (ip), vehicle: Klucel (hydroxypropylcellulose) (HPC)): 3 of 6 | survivor count (dose: 400.0 mg/kg/injection, schedule: Q01DX001 (ip), vehicle: Klucel (hydroxypropylcellulose) (HPC)): 0 of 6

CCCCN=C(C(=O)NCCCC)c1ccccc1NC(C)=O
survivor count (dose: 400.0 mg/kg/injection, schedule: Q01DX009 (ip), vehicle: Klucel (hydroxypropylcellulose) (HPC)): 6 of 6

Clc1ccccc1CSc1ncnc2nc[nH]c12
T/C (dose: 120.0 mg/kg/injection, schedule: Q01DX009 (ip), vehicle: saline): 126 % of control | T/C (dose: 125.0 mg/kg/injection, schedule: Q01DX Z (ip), vehicle: other): 140 % of control | T/C (dose: 200.0 mg/kg/injection, schedule: Q01DX009 (ip), vehicle: saline): 138 % of control | T/C (dose: 250.0 mg/kg/injection, schedule: Q01DX Z (ip), vehicle: other): 133 % of control | T/C (dose: 400.0 mg/kg/injection, schedule: Q01DX001 (ip), vehicle: acetone): 138 % of control [5 of 6 alive]

O=C(NCCCCCCCNC(=O)Nc1ccc(C2=NCCN2)cc1)Nc1ccc(C2=NCCN2)cc1
survivor count (dose: 500.0 mg/kg/injection, schedule: Q01DX Z (ip), vehicle: carboxymethylcellulose (CMC)): 3 of 6

CC1C(=O)c2cc3c(cc2CCN(C)Cc2c1ccc1c2OCO1)OCO3 (stereo not drawn)
survivor count (dose: 38.0 mg/kg/injection, schedule: Q01DX001 (ip), vehicle: other): 1 of 6 | survivor count (dose: 75.0 mg/kg/injection, schedule: Q01DX001 (ip), vehicle: other): 0 of 6 | survivor count (dose: 80.0 mg/kg/injection, schedule: Q01DX001 (ip), vehicle: saline): 2 of 4 | survivor count [4]: 1 of 4 | survivor count (dose: 150.0 mg/kg/injection, schedule: Q01DX001 (ip), vehicle: other): 0 of 6 | survivor count [6]: 0 of 4 | survivor count [10]: 0 of 6 | survivor count [8]: 0 of 4

c1cc[c]([Sn]([S]c2ncnc3c2nc[n]3[Sn]([c]2ccccc2)([c]2ccccc2)[c]2ccccc2)([c]2ccccc2)[c]2ccccc2)cc1.c1cc[c]([Sn]([S]c2ncnc3nc[nH]c23)([c]2ccccc2)[c]2ccccc2)cc1
survivor count (dose: 40.0 mg/kg/injection, schedule: Q01DX001 (ip), vehicle: other): 0 of 6 | survivor count (dose: 80.0 mg/kg/injection, schedule: Q01DX001 (ip), vehicle: other): 0 of 6 | survivor count (dose: 100.0 mg/kg/injection, schedule: Q01DX001 (ip), vehicle: other): 0 of 6 | survivor count (dose: 200.0 mg/kg/injection, schedule: Q01DX001 (ip), vehicle: other): 1 of 6 | survivor count (dose: 400.0 mg/kg/injection, schedule: Q01DX001 (ip), vehicle: other): 0 of 6

O=C1C2C3C=CC(CC3)C2C(=O)C2C3C=CC(C3)C12 (stereo not drawn)
survivor count [3]: 0 of 3

Nc1ccc(N)c(C(=O)O)c1
survivor count [10]: 3 of 6

CCCCCCC[CH2][Sn](=[O])[CH2]CCCCCCC
survivor count (dose: 12.5 mg/kg/injection, schedule: Q01DX009 (ip), vehicle: saline with Tween-80): 5 of 6 | survivor count (dose: 25.0 mg/kg/injection, schedule: Q01DX009 (ip), vehicle: saline with Tween-80): 6 of 6 | survivor count (dose: 50.0 mg/kg/injection, schedule: Q01DX009 (ip), vehicle: saline with Tween-80): 1 of 6 | survivor count (dose: 100.0 mg/kg/injection, schedule: Q01DX009 (ip), vehicle: saline with Tween-80): 0 of 6 | survivor count (dose: 200.0 mg/kg/injection, schedule: Q04DX003 (ip), vehicle: acetone): 4 of 6 | survivor count (dose: 400.0 mg/kg/injection, schedule: Q04DX003 (ip), vehicle: acetone): 0 of 6

O=C(Nc1ccc(C2=NCCN2)cc1)c1ccc(C(=O)Nc2ccc(C3=NCCN3)cc2)c(F)c1
T/C (dose: 5.5 mg/kg/injection, schedule: Q01DX Z (ip), vehicle: carboxymethylcellulose (CMC)): 134 % of control | survivor count (dose: 360.0 mg/kg/injection, schedule: Q01DX Z (ip), vehicle: carboxymethylcellulose (CMC)): 6 of 6

O=C(Nc1ccc(NC(=O)Nc2cccc(C3=NCCCN3)c2)cc1)Nc1cccc(C2=NCCCN2)c1
T/C (dose: 25.0 mg/kg/injection, schedule: Q01DX Z (ip), vehicle: carboxymethylcellulose (CMC)): 126 % of control | T/C (dose: 62.0 mg/kg/injection, schedule: Q01DX Z (oral), vehicle: carboxymethylcellulose (CMC)): 125 % of control | T/C (dose: 75.0 mg/kg/injection, schedule: Q01DX Z (ip), vehicle: carboxymethylcellulose (CMC)): 147 % of control | T/C (dose: 100.0 mg/kg/injection, schedule: Q01DX Z (ip), vehicle: carboxymethylcellulose (CMC)): 143 % of control

CCC(C)C(C)CO (stereo not drawn)
survivor count [8]: 0 of 4
